# Assay results reported in PMC11721672 (Molecules, 2024).
# Some peptides are written in HELM: one residue between dots, names in brackets for other building blocks, links after the first $. Square brackets hold non-standard residues; d marks the D form. Ends that are not written are not given here. Bip = N[C@@H](Cc1ccc(-c2ccccc2)cc1)C(=O)O; αMePhe(2-F) = C[C@](N)(Cc1ccccc1F)C(=O)O; Aib = CC(C)(N)C(=O)O
# Assay: general procedure: Fmoc solid-phase peptide synthesis; Amphispheres 40 RAM, 75–150 µM resin (Agilent Technologies); HCTU/6-Cl-HOBt/DIEA; HATU/HOAt/DIEA; PyOxim/DIEA then HCTU/HOAt/DIEA
# Details: whole synthesis, 214 nm
row,Substance,final HPLC purity
1,Aib-Aib-Glu-Gly-Thr-a-Me-Phe(2-F)-Thr-Ser-Asp-Bip-Bip,96.0%
2,H[Aib][Aib]GT[αMePhe(2-F)]TSD[Bip][Bip],93.0%
3,His-Aib-Glu-Gly-Thr-a-Me-Phe(2-F)-Thr-Ser-Asp-Bip-Bip,92.5%
4,PEPTIDE1{A.[XAib].E.G.T.[XPhe2F].T.S.D.[XBip].[XBip].[am]}$$$$V2.0,93%
5,PEPTIDE1{H.A.E.G.T.[XPhe2F].T.S.D.[XBip].[XBip].[am]}$$$$V2.0,90%
6,PEPTIDE1{H.[XAib].A.G.T.[XPhe2F].T.S.D.[XBip].[XBip].[am]}$$$$V2.0,84%
7,PEPTIDE1{H.[XAib].E.A.T.[XPhe2F].T.S.D.[XBip].[XBip].[am]}$$$$V2.0,93%
8,PEPTIDE1{H.[XAib].E.G.A.[XPhe2F].T.S.D.[XBip].[XBip].[am]}$$$$V2.0,94%
9,PEPTIDE1{H.[XAib].E.G.T.A.T.S.D.[XBip].[XBip].[am]}$$$$V2.0,93%
10,PEPTIDE1{H.[XAib].E.G.T.F.T.S.D.[XBip].[XBip].[am]}$$$$V2.0,90.0%
11,PEPTIDE1{H.[XAib].E.G.T.W.T.S.D.[XBip].[XBip].[am]}$$$$V2.0,96.0%
12,PEPTIDE1{H.[XAib].E.G.T.Y.T.S.D.[XBip].[XBip].[am]}$$$$V2.0,93.0%
13,PEPTIDE1{H.[XAib].E.G.T.[XAib].T.S.D.[XBip].[XBip].[am]}$$$$V2.0,95.0%
14,PEPTIDE1{H.[XAib].E.G.T.[XBip].T.S.D.[XBip].[XBip].[am]}$$$$V2.0,88.0%
15,PEPTIDE1{H.[XAib].E.G.T.[XDPhe].T.S.D.[XBip].[XBip].[am]}$$$$V2.0,89.0%
16,PEPTIDE1{H.[XAib].E.G.T.[XPhe2Br].T.S.D.[XBip].[XBip].[am]}$$$$V2.0,96.0%

row,Substance,final HPLC purity
1,PEPTIDE1{H.[XAib].E.G.T.[XPhe2CF3].T.S.D.[XBip].[XBip].[am]}$$$$V2.0,98.0%
2,PEPTIDE1{H.[XAib].E.G.T.[XPhe2CH3].T.S.D.[XBip].[XBip].[am]}$$$$V2.0,99.0%
3,PEPTIDE1{H.[XAib].E.G.T.[XPhe2CN].T.S.D.[XBip].[XBip].[am]}$$$$V2.0,80.0%
4,PEPTIDE1{H.[XAib].E.G.T.[XPhe2Cl].T.S.D.[XBip].[XBip].[am]}$$$$V2.0,88.0%
5,PEPTIDE1{H.[XAib].E.G.T.[XPhe2F].A.S.D.[XBip].[XBip].[am]}$$$$V2.0,89%
6,PEPTIDE1{H.[XAib].E.G.T.[XPhe2F].T.A.D.[XBip].[XBip].[am]}$$$$V2.0,87%
7,PEPTIDE1{H.[XAib].E.G.T.[XPhe2F].T.S.A.[XBip].[XBip].[am]}$$$$V2.0,83%
8,PEPTIDE1{H.[XAib].E.G.T.[XPhe2F].T.S.D.A.[XBip].[am]}$$$$V2.0,96%
9,PEPTIDE1{H.[XAib].E.G.T.[XPhe2F].T.S.D.[XBip].A.[am]}$$$$V2.0,92%
10,PEPTIDE1{H.[XAib].E.G.T.[XPhe2F].T.S.D.[XBip].[XBip].[am]}$$$$V2.0,90.0%
11,PEPTIDE1{H.[XAib].E.G.T.[XPhe2NO2].T.S.D.[XBip].[XBip].[am]}$$$$V2.0,91.0%
12,PEPTIDE1{H.[XAib].E.G.T.[XPhe3CF3].T.S.D.[XBip].[XBip].[am]}$$$$V2.0,89.0%
13,PEPTIDE1{H.[XAib].E.G.T.[XPhe345F].T.S.D.[XBip].[XBip].[am]}$$$$V2.0,93.0%
14,PEPTIDE1{H.[XAib].E.G.T.[XPhe23456F].T.S.D.[XBip].[XBip].[am]}$$$$V2.0,92.0%
15,PEPTIDE1{H.[XAib].E.G.T.[XhPhe].T.S.D.[XBip].[XBip].[am]}$$$$V2.0,99.0%
